Data taken from PubChem BioAssay AID588499 (NMMLSC, 2011).
About 610 (0.17%) of roughly 360,000 compounds were called active. Inconclusive results, whose numbers are uncertain, are shown with a selection of clear calls. Cut-off read from the data, not from the text of the source: active = inhibition above about 30%; inconclusive = no clear call, values can overlap the other calls; inactive = below that.

The compounds below were run on Botulinum neurotoxin type A light chain protease (Clostridium botulinum A str. ATCC 3502) (assay: blockers of BoNT/A LC substrate cleavage – biochemical, flow cytometry, MLPCN library, primary screen (AID 588499; note: plate controls were buffer without enzyme for full effect and enzyme alone for no effect)). Conditions: multiplex microsphere protease substrate cleavage, at 10 µM, active compounds read high.
With O=C(NC1CCCC1)C(c1ccco1)N(Cc1ccccc1)C(=O)c1csnn1 (stereo unspecified) the inhibition was inconclusive: 0.2%.
In the case of COc1ccc(NC(=O)CN2CCN(CC(=O)Nc3ccccc3Cl)CC2)c(OC)c1, the inhibition is reported as inactive: 3.5%.
With CC(=O)c1nc2ccccc2n1S(=O)(=O)c1ccc(Cl)cc1 the inhibition was inconclusive: -10.3%.
For CNS(=O)(=O)c1cccc(C(=O)OCC(=O)c2ccc(S(=O)(=O)N3CCCCC3)cc2)c1, the inhibition was inconclusive: -0.1%.
With O=C(Nc1ccccc1)c1nn(-c2cccc(C(F)(F)F)c2)ccc1=O the inhibition was inactive: -1.8%.
For CCc1ccc(-c2nc(SCC(=O)NC3CCS(=O)(=O)C3)n[nH]2)cc1 (stereo unspecified), the inhibition was inconclusive: -0.7%.
With CC1=NNC(=O)C1CCC(=O)N/N=C\c1ccccc1[N+](=O)[O-] (stereo unspecified) the inhibition was inconclusive: 1.8%.
With CCOC(=O)C1=C(c2ccccc2)NC(SCC(=O)Nc2cccc(C)c2)=C(C#N)C1c1ccco1 (stereo unspecified) the inhibition was inconclusive: 1.7%.
With CC(C)OCCCNC(=O)Cn1ccc2cc(S(=O)(=O)N3CCCCC3)ccc21 the inhibition was inactive: -1.4%.
For CCOC(=O)c1cnn(-c2ccccc2)c1-c1ccncc1, the inhibition was inactive: -2.1%.
With O=C(CCC(=O)N(CC(=O)NC1CCCC1)c1ccc(F)cc1)Nc1nccs1 the inhibition was inactive: 0.5%.
For N=c1oc2ccc3ccccc3c2cc1-c1nc(-c2ccccc2)cs1, the inhibition was active: 34.2%.
CC(C(=O)NNS(=O)(=O)c1cccc(C(F)(F)F)c1)n1nnc(N2CCOCC2)n1 (stereo unspecified) was tested, and the inhibition was inconclusive: 15.5%.
With CCN1CCN(C(=O)c2cc(-c3cccnc3)nc3ccc(Br)cc23)CC1 the inhibition was inconclusive: 0.4%.
In the case of COC(=O)c1c(C(=O)OC)c(-c2ccc(Cl)c(Cl)c2)n2c1CCC2, the inhibition is reported as inactive: -0.3%.
With CCOc1cccc2cc(C(=O)NCc3cccnc3)c(=O)oc12 the inhibition was inconclusive: 4.8%.
C[C@H](NC(=O)c1ccco1)C(=O)NCc1cccs1 was tested, and the inhibition was inconclusive: 3.2%.
With Cn1c2c(c(=O)n3ncnc13)CCCC2 the inhibition was inconclusive: 3.4%.
For Cc1cc(NC(=O)c2ccc3c(c2)C(=O)N(CC(C)C)C3=O)no1, the inhibition was inconclusive: 13.6%.
With Cc1ccc(Cl)cc1N1CCN(c2cccc[n+]2C)CC1 the inhibition was inactive: -0.1%.
In the case of O=Cc1cn(Cc2c(F)cccc2Cl)nc1-c1ccccc1, the inhibition is reported as inconclusive: -1.1%.
With Cc1ccccc1-c1nc(CN2CCC(C(=O)NCC3CCCO3)CC2)c(C)o1 (stereo unspecified) the inhibition was inactive: -3.7%.
With CCOc1ccccc1NS(=O)(=O)N(C)C the inhibition was inconclusive: -1.3%.
With O=c1[nH]c2ccccc2n1CCCSCCCn1c(=O)[nH]c2ccccc21 the inhibition was inconclusive: 4.3%.
COC(=O)CCC[C@H]1CC2(C[C@H](CCCO[Si](C)(C)C(C)(C)C)N1C(=O)OC(C)(C)C)OCCO2 was tested, and the inhibition was inactive: -0.5%.
With NS(=O)(=O)c1ccc(N2N=C(c3ccccc3)CC2c2cccc(Br)c2)cc1 (stereo unspecified) the inhibition was inactive: -1.1%.
CCN1CCN(C(=O)C2c3cc(OC)c(OC)cc3C(=O)N(C)C2c2ccc(SC)cc2)CC1 (stereo unspecified) was tested, and the inhibition was inconclusive: -8.9%.
COc1cccc(C(=O)N(CN2CCCC2=O)c2cc(C)on2)c1 was tested, and the inhibition was inconclusive: 0.5%.
With Clc1ccc(CSc2snnc2-c2ccccc2)c(Cl)c1 the inhibition was inconclusive: 6.8%.
In the case of COC(=O)Cc1c(C)c2ccc(OCC(=O)N(C)C3CCS(=O)(=O)C3)cc2oc1=O (stereo unspecified), the inhibition is reported as inactive: 0.5%.
With CC(=O)Nc1ccc(S(=O)(=O)NC2(C(F)(F)F)NC(=O)N(c3ccc(Cl)cc3)C2=O)cc1 (stereo unspecified) the inhibition was inconclusive: 3.5%.
For Cc1ccc(OCC(=O)NCCCNC(=O)c2ccncc2)cc1, the inhibition was inactive: -0.5%.
For Cc1c(N2C(=O)CS/C2=N\N=C\c2ccccc2O)c(=O)n(-c2ccccc2)n1C, the inhibition was inconclusive: -0.8%.
For COc1cccc(NC(=O)CSc2nnc(Cc3cccs3)n2-c2ccc(C)cc2)c1, the inhibition was inconclusive: 7.5%.
In the case of CCCn1nc(C(=O)NNC(=O)Cc2ccc(S(=O)(=O)N3CCOCC3)s2)c2ccccc2c1=O, the inhibition is reported as inconclusive: 28%.
For Cc1cc(NC(=O)CSc2nnc(COc3cccc(C)c3C)n2Cc2ccco2)no1, the inhibition was inconclusive: 4.5%.
For CC(=O)c1cccc(S(=O)(=O)N2CCCC(c3nc(-c4ccc(C)o4)no3)C2)c1 (stereo unspecified), the inhibition was inconclusive: -2.9%.
For O=C(NCCCN1CCOCC1)c1cc(S(=O)(=O)N2CCCCC2)ccc1Cl, the inhibition was inactive: -0.4%.
In the case of CCCN(CCC)CCCNS(=O)(=O)c1ccc2c(c1)oc(=O)n2C, the inhibition is reported as inconclusive: -4.7%.
With CN1[C@@H](Cc2ccccc2)COc2cc(N3CCSCC3)ccc2S1(=O)=O the inhibition was inactive: -0.1%.
CC(C)(C)C(=O)NNC(=O)c1cc(C(C)(C)C)nn1Cc1ccccc1 was tested, and the inhibition was inconclusive: 3.3%.
With Cc1ccccc1-c1ccc(C(=O)NCc2ccccc2)o1 the inhibition was inactive: -0.4%.
CCc1ccc(-c2nnn(Cc3nn[nH]n3)n2)cc1 was tested, and the inhibition was inconclusive: 0.5%.
In the case of O=C(Nc1c(C(=O)N2CCCC2)cnn1-c1ccccc1)c1cccc(F)c1, the inhibition is reported as inconclusive: -1.4%.
With Cc1ccc(-c2csnn2)cc1 the inhibition was inconclusive: 14.6%.
Cc1sc2nc(C3CC3)nc(SCC(=O)N3CCc4ccccc4C3)c2c1C was tested, and the inhibition was inconclusive: -0.6%.
With O=C(c1ccc(C(F)(F)F)cc1)c1c[nH]c(C(=O)NCCCn2ccnc2)c1 the inhibition was inconclusive: 2%.
For O=C(NNC(=O)c1ccc(Oc2ccc(C3SCCS3)cc2)o1)c1ccc(Cl)cc1, the inhibition was inconclusive: -10.5%.
With Cc1noc(C)c1CSCC(=O)Nc1ccccc1N1CCCCC1 the inhibition was inconclusive: 0.3%.
With CCOC(=O)C1CCN(C(=O)c2ccc3nc(-c4ccc(OC)cc4)c(-c4ccc(OC)cc4)nc3c2)CC1 the inhibition was active: 29.8%.
C#CCn1cc2c(c1-c1ccccc1)c(=O)n(C)c(=O)n2C was tested, and the inhibition was inactive: -0.2%.
COc1cc(Cl)c(C)cc1NC(=O)CCCn1c(=O)oc2ccccc21 was tested, and the inhibition was inactive: 0.9%.
Cc1ccc(NS(=O)(=O)c2cccc(C(=O)NCC3CCCO3)c2)cc1 (stereo unspecified) was tested, and the inhibition was inconclusive: 1%.
O=[N+]([O-])c1ccc(N2CCCCCC2)c2nonc12 was tested, and the inhibition was active: 53.1%.
COc1ccc(CCNC(=O)c2ccc3c(c2)OCCO3)cc1 was tested, and the inhibition was inactive: 0.1%.
With CSCCC(NS(=O)(=O)c1ccccc1F)C(=O)N1CCCCCCC1 (stereo unspecified) the inhibition was inactive: -2.1%.
